In PMC5651216, “Structural Basis for a Safety-Belt Mechanism That Anchors Condensin to Chromosomes”:
Results are given in words; binding and its absence hold for the method and conditions named. Some results given as binding are weak or reduced against the parent protein; the word gives no strength. Tags and fused reporters may be left off the sequences shown.

Target: T1, Sc Brn1-His12-HA3 (S. cerevisiae) (UniProt P38170)
T1 sequence: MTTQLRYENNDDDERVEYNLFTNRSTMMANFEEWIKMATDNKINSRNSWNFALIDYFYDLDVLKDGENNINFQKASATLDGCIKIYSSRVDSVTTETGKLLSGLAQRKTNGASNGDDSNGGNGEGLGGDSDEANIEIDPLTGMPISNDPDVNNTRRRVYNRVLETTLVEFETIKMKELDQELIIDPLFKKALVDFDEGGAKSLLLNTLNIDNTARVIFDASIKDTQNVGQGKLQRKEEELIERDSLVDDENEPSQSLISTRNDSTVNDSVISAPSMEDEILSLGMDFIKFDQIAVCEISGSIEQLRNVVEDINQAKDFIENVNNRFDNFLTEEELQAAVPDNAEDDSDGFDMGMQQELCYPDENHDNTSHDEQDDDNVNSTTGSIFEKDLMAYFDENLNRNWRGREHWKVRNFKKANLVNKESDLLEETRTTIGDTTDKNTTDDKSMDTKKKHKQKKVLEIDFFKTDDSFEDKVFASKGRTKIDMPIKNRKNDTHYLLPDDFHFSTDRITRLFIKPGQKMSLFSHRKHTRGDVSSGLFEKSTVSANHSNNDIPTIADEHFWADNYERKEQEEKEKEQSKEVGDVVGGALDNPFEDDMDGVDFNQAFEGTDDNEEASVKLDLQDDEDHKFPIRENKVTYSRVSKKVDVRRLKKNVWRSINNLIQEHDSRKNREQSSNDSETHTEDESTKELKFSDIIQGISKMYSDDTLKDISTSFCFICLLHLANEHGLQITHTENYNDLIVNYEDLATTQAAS
Assay: tandem affinity co-purification (HisTrap, Strep-Tactin) and SEC; condensin subunits overexpressed together in S. cerevisiae; HisTrap on Brn1-His12-HA3, Strep-Tactin on Smc4-StrepII3 (wash with 500 mM NaCl), Superose 6; SDS-PAGE and Coomassie staining

B1: Sc Smc2_(Q147L) (protein, UniProt P38989 1-1170)
chain: MKVEELIIDGFKSYATRTVITDWDPQFNAITGLNGSGKSNILDAICFVLGIASMSTVRASSLQDLIYKRGQAGVTKASVTIVFDNTDKSNSPIGFTNSPQISVTRQVVLGGTSKYLINGHRAPQQSVLQLFQSVQLNINNPNFLIMLGKITKVLNMKPSEILSLIEEAAGTKMFEDRREKAERTMSKKETKLQENRTLLTEEIEPKLEKLRNEKRMFLEFQSTQTDLEKTERIVVSYEYYNIKHKHTSIRETLENGETRMKMLNEFVKKTSEEIDSLNEDVEEIKLQKEKELHKEGTISKLENKENGLLNEISRLKTSLSIKVENLNDTTEKSKALESEIASSSAKLIEKKSAYANTEKDYKMVQEQLSKQRDLYKRKEELVSTLTTGISSTGAADGGYNAQLAKAKTELNEVSLAIKKSSMKMELLKKELLTIEPKLKEATKDNELNVKHVKQCQETCDKLRARLVEYGFDPSRIKDLKQREDKLKSHYYQTCKNSEYLKRRVTNLEFNYTKPYPNFEASFVHGVVGQLFQIDNDNIRYATALQTCAGGRLFNVVVQDSQTATQLLERGRLRKRVTIIPLDKIYTRPISSQVLDLAKKIAPGKVELAINLIRFDESITKAMEFIFGNSLICEDPETAKKITFHPKIRARSITLQGDVYDPEGTLSGGSRNTSESLLVDIQKYNQIQKQIETIQADLNHVTEELQTQYATSQKTKTIQSDLNLSLHKLDLAKRNLDANPSSQIIARNEEILRDIGECENEIKTKQMSLKKCQEEVSTIEKDMKEYDSDKGSKLNELKKELKLLAKELEEQESESERKYDLFQNLELETEQLSSELDSNKTLLHNHLKSIESLKLENSDLEGKIRGVEDDLVTVQTELNEEKKRLMDIDDELNELETLIKKKQDEKKSSELELQKLVHDLNKYKSNTNNMEKIIEDLRQKHEFLEDFDLVRNIVKQNEGIDLDTYRERSKQLNEKFQELRKKVNPNIMNMIENVEKKEAALKTMIKTIEKDKMKIQETISKLNEYKRETLVKTWEKVTLDFGNIFADLLPNSFAKLVPCEGKDVTQGLEVKVKLGNIWKESLIELSGGQRSLIALSLIMALLQFRPAPMYILDEVDAALDLSHTQNIGHLIKTRFKGSQFIVVSLKEGMFANANRVFRTRFQDGTSVVSIM
- binding: binds

B2: Sc Smc4_(Q302L)-StrepII3 (protein, UniProt Q12267 1-1418)
chain: MSDSPLSKRQKRKSAQEPELSLDQGDAEEDSQVENRVNLSENTPEPDLPALEASYSKSYTPRKLVLSSGENRYAFSQPTNSTTTSLHVPNLQPPKTSSRGRDHKSYSQSPPRSPGRSPTRRLELLQLSPVKNSRVELQKIYDRHQSSSKQQSRLFINELVLENFKSYAGKQVVGPFHTSFSAVVGPNGSGKSNVIDSMLFVFGFRANKMRQDRLSDLIHKSEAFPSLQSCSVAVHFQYVIDESSGTSRIDEEKPGLIITRKAFKNNSSKYYINEKESSYTEVTKLLKNEGIDLDHKRFLILLGEVENIAQMKPKAEKESDDGLLEYLEDIIGTANYKPLIEERMGQIENLNEVCLEKENRFEIVDREKNSLESGKETALEFLEKEKQLTLLRSKLFQFKLLQSNSKLASTLEKISSSNKDLEDEKMKFQESLKKVDEIKAQRKEIKDRISSCSSKEKTLVLERRELEGTRVSLEERTKNLVSKMEKAEKTLKSTKHSISEAENMLEELRGQQTEHETEIKDLTQLLEKERSILDDIKLSLKDKTKNISAEIIRHEKELEPWDLQLQEKESQIQLAESELSLLEETQAKLKKNVETLEEKILAKKTHKQELQDLILDLKKKLNSLKDERSQGEKNFTSAHLKLKEMQKVLNAHRQRAMEARSSLSKAQNKSKVLTALSRLQKSGRINGFHGRLGDLGVIDDSFDVAISTACPRLDDVVVDTVECAQHCIDYLRKNKLGYARFILLDRLRQFNLQPISTPENVPRLFDLVKPKNPKFSNAFYSVLRDTLVAQNLKQANNVAYGKKRFRVVTVDGKLIDISGTMSGGGNHVAKGLMKLGTNQSDKVDDYTPEEVDKIERELSERENNFRVASDTVHEMEEELKKLRDHEPDLESQISKAEMEADSLASELTLAEQQVKEAEMAYVKAVSDKAQLNVVMKNLERLRGEYNDLQSETKTKKEKIKGLQDEIMKIGGIKLQMQNSKVESVCQKLDILVAKLKKVKSASKKSGGDVVKFQKLLQNSERDVELSSDELKVIEEQLKHTKLALAENDTNMNETLNLKVELKEQSEQLKEQMEDMEESINEFKSIEIEMKNKLEKLNSLLTYIKSEITQQEKGLNELSIRDVTHTLGMLDDNKMDSVKEDVKNNQELDQEYRSCETQDESEIKDAETSCDNYHPMNIDETSDEVSRGIPRLSEDELRELDVELIESKINELSYYVEETNVDIGVLEEYARRLAEFKRRKLDLNNAVQKRDEVKEQLGILKKKRFDEFMAGFNIISMTLKEMYQMITMGGNAELELVDSLDPFSEGVTFSVMPPKKSWRNITNLSGGEKTLSSLALVFALHKYKPTPLYVMDEIDAALDFRNVSIVANYIKERTKNAQFIVISLRNNMFELAQQLVGVYKRDNRTKSTTIKNIDILNRT
- binding: binds
